# From the supplement of paper PMC4604168 (melanoma cell lines)
# The list shows a part of the results. Single values are uncertain, as repeats are few or missing.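 Cells were imaged in 1,536-well plates, and nuclei stained with an antibody against cleaved PARP were counted against all DNA-stained nuclei to give the apoptosis fraction. Screening doses were chosen to leave most cells alive, and resting and induced cleaved-PARP levels differ strongly between cell lines.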
# Assays:
# Assay in all cases: cleaved PARP positive nuclei fraction relative to DMSO control; melanoma cells; higher = more apoptosis
# Settings in all cases: library dose: low library concentration; 72 h
# 501Mel = system: 501Mel
# A101D = system: A101D
# A2058 = system: A2058
# C32 = system: C32
# CBRC008 = system: CBRC008 (line from a melanoma biopsy)
# CBRC014 = system: CBRC014 (line from a melanoma biopsy)
# CBRC016 = system: CBRC016 (line from a melanoma biopsy)
# CBRC017 = system: CBRC017 (line from a melanoma biopsy)
# COLO792 = system: COLO792
# COLO800 = system: COLO800
# COLO829 = system: COLO829
# G361 = system: G361
# IPC-298 = system: IPC-298
# IST-MEL1 = system: IST-MEL1
# LB2518-MEL = system: LB2518-MEL
# LOXIMVI = system: LOXIMVI
SMILES,cleaved PARP positive nuclei fraction (501Mel) [%],cleaved PARP positive nuclei fraction (A101D) [%],cleaved PARP positive nuclei fraction (A2058) [%],cleaved PARP positive nuclei fraction (C32) [%],cleaved PARP positive nuclei fraction (CBRC008) [%],cleaved PARP positive nuclei fraction (CBRC014) [%],cleaved PARP positive nuclei fraction (CBRC016) [%],cleaved PARP positive nuclei fraction (CBRC017) [%],cleaved PARP positive nuclei fraction (COLO792) [%],cleaved PARP positive nuclei fraction (COLO800) [%],cleaved PARP positive nuclei fraction (COLO829) [%],cleaved PARP positive nuclei fraction (G361) [%],cleaved PARP positive nuclei fraction (IPC-298) [%],cleaved PARP positive nuclei fraction (IST-MEL1) [%],cleaved PARP positive nuclei fraction (LB2518-MEL) [%],cleaved PARP positive nuclei fraction (LOXIMVI) [%]
"NC(=O)c1ccc(N(C(N)=O)c2c(F)cccc2F)nc1-c1ccc(F)cc1F + O=C(O)C(=O)Nc1sc2c(c1C(=O)O)CCNC2 [TCS401] (first compound 0.4 µM, partner dose 1.66667 µM)",160,27.9,51.4,161,157,89,25.9,160,62.4,140,55.3,101,224,106,70,44.8
"Cn1sc(=O)n(Cc2ccccc2)c1=O + COc1cc(N2CCC(N3CCN(C)CC3)CC2)ccc1Nc1ncc(Cl)c(Nc2ccccc2S(=O)(=O)C(C)C)n1 [NVP-TAE684] (first compound 0.4 µM, partner dose 0.08 µM)",74.8,8.48,79.4,149,31.2,97.5,35.6,59.1,258,151,107,111,179,70.5,58,126
"C[C@]1(O)C[C@@H](c2nc(-c3ccc4ccc(-c5ccccc5)nc4c3)c3c(N)nccn32)C1 + O=C(O)C(=O)Nc1sc2c(c1C(=O)O)CCNC2 [TCS401] (first compound 0.4 µM, partner dose 1.66667 µM)",65.8,18.7,45.9,37,179,112,83.4,76.1,136,186,104,150,213,84,45.3,75.7
"CC(=O)O[C@@]12CO[C@@H]1C[C@H](O)[C@@]1(C)C(=O)[C@H](O)C3=C(C)[C@@H](OC(=O)[C@H](O)[C@@H](NC(=O)OC(C)(C)C)c4ccccc4)C[C@@](O)([C@@H](OC(=O)c4ccccc4)[C@H]21)C3(C)C [Docetaxel] + COC(=O)c1sccc1S(=O)(=O)Nc1ccc(Nc2ccccc2)cc1OC [GSK0660] (first compound 0.0001 µM, partner dose 1 µM)",205,89,937,142,129,431,168,160,937,119,132,556,392,115,116,270
"Cn1cnc2c(F)c(Nc3ccc(Br)cc3Cl)c(C(=O)NOCCO)cc21 [selumetinib] + O=C(O)C(=O)Nc1sc2c(c1C(=O)O)CCNC2 [TCS401] (first compound 0.015 µM, partner dose 1.66667 µM)",169,46.3,94.5,58.4,168,101,79.2,85,88.1,56.8,111,106,90.4,186,118,110
"CCCCCCCCc1ccc(CCC(N)(CO)CO)cc1 [fingolimod] + COc1ccc(-c2ccc3c(N4CCOCC4)nc(N4C[C@@H](C)O[C@@H](C)C4)nc3n2)cc1CO [KU0063794] (first compound 2 µM, partner dose 0.02 µM)",154,15.1,147,204,40,422,45.9,428,52.8,179,126,120,50,120,79.7,112
"COc1ccc(C2=N[C@@H](c3ccc(Cl)cc3)[C@@H](c3ccc(Cl)cc3)N2C(=O)N2CCNC(=O)C2)c(OC(C)C)c1 [Nutlin-3] + COc1ccc2c(c1)CCC1C2CCC2(C)C(NCCCCCCN3C(=O)C=CC3=O)CCC12 [U73122] (first compound 0.1 µM, partner dose 0.4 µM)",69.7,34.9,192,111,236,111,123,109,41.4,92.4,88.9,105,84.5,146,88.9,57.7
"C[C@]1(O)C[C@@H](c2nc(-c3ccc4ccc(-c5ccccc5)nc4c3)c3c(N)nccn32)C1 + CC(C)CCN1c2nc(Nc3cc(F)c(O)c(F)c3)ncc2N(C)C(=O)C1C [BID1870] (first compound 0.4 µM, partner dose 0.2 µM)",154,29.4,64.9,156,115,123,33.8,91.3,181,144,87.8,102,35.1,103,38.4,57.9
"CC1(C)CCC(c2ccc(Cl)cc2)=C(CN2CCN(c3ccc(C(=O)NS(=O)(=O)c4ccc(N[C@H](CCN5CCOCC5)CSc5ccccc5)c(S(=O)(=O)C(F)(F)F)c4)cc3)CC2)C1 + O=S(=O)(c1ccccc1)N(CC(F)(F)F)c1ccc(C(O)(C(F)(F)F)C(F)(F)F)cc1 [T0901317] (first compound 0.4 µM, partner dose 1.4 µM)",191,83.6,61.3,292,157,579,529,507,224,51.4,55.9,387,204,81,76.1,124
"Cn1cnc2c(F)c(Nc3ccc(Br)cc3Cl)c(C(=O)NOCCO)cc21 [selumetinib] + O=S(=O)(c1ccccc1)N(CC(F)(F)F)c1ccc(C(O)(C(F)(F)F)C(F)(F)F)cc1 [T0901317] (first compound 0.015 µM, partner dose 1.4 µM)",126,49,78.3,41.5,93.3,96.3,29,134,57.3,62.7,78,76.9,71.8,211,112,96.3
"C[C@@H](N)c1ccc(C(=O)Nc2ccnc3[nH]ccc23)cc1 + O=S(=O)(c1ccccc1)N(CC(F)(F)F)c1ccc(C(O)(C(F)(F)F)C(F)(F)F)cc1 [T0901317] (first compound 0.4 µM, partner dose 1.4 µM)",172,20.5,114,155,109,145,65.9,119,79.9,124,138,101,203,89.4,60.2,43.1
"NC(=O)c1ccc(N(C(N)=O)c2c(F)cccc2F)nc1-c1ccc(F)cc1F + c1cc(-c2cnn3cc(-c4ccc(OCCN5CCCCC5)cc4)cnc23)ccn1 [Dorsomorphin] (first compound 0.4 µM, partner dose 0.4 µM)",70.7,28.2,37.7,33.5,98.9,119,40.5,96.7,89.3,133,103,70.2,48.6,28.9,66.7,247
"CC(=O)O[C@@]12CO[C@@H]1C[C@H](O)[C@@]1(C)C(=O)[C@H](O)C3=C(C)[C@@H](OC(=O)[C@H](O)[C@@H](NC(=O)OC(C)(C)C)c4ccccc4)C[C@@](O)([C@@H](OC(=O)c4ccccc4)[C@H]21)C3(C)C [Docetaxel] + O=S(=O)(c1ccccc1)N(CC(F)(F)F)c1ccc(C(O)(C(F)(F)F)C(F)(F)F)cc1 [T0901317] (first compound 0.0001 µM, partner dose 1.4 µM)",109,48.2,2460,386,364,229,189,142,294,115,346,569,143,53.8,208,311
"CCCCCCCCc1ccc(CCC(N)(CO)CO)cc1 [fingolimod] + COc1ccc2c(c1)CCC1C2CCC2(C)C(NCCCCCCN3C(=O)C=CC3=O)CCC12 [U73122] (first compound 2 µM, partner dose 0.4 µM)",127,25.2,225,79.2,152,1130,141,83.6,36.6,30.4,73.1,167,87.8,356,48.8,36.9
"COc1ccc(C2=N[C@@H](c3ccc(Cl)cc3)[C@@H](c3ccc(Cl)cc3)N2C(=O)N2CCNC(=O)C2)c(OC(C)C)c1 [Nutlin-3] + Cc1cc([N+](=O)[O-])ccc1NS(=O)(=O)c1cc(Cl)ccc1Cl [FH535] (first compound 0.1 µM, partner dose 1 µM)",87.8,31.8,46.7,79.6,364,164,962,710,83.7,175,117,99.4,63.4,68.7,72.8,133
"C[C@]1(O)C[C@@H](c2nc(-c3ccc4ccc(-c5ccccc5)nc4c3)c3c(N)nccn32)C1 + COc1ccc(COc2ccc(Cc3cnc(N)nc3N)cc2OC)cc1 [GW2580] (first compound 0.4 µM, partner dose 1 µM)",39.4,19.5,97.8,160,242,105,60.8,93.9,141,64.1,127,92.4,96.6,64.7,34.1,135
